Source: patent publication US12071516B2, “Polymeric stabilizing formulations” (Nano Precision Medical, Inc., priority 2014, dated 2024)
Several values for one entry are separate records, joined by “and”; a condition that tells them apart may be missing. Equal entries are not always repeated.

Experiment: Diffusion cell experiment, release rate through nanopores (Example 14)
Details: pores of 5 nm

C[C@@H](O)[C@@H]1NC(=O)[C@H](CCCCN)NC(=O)[C@@H](Cc2c[nH]c3ccccc23)NC(=O)[C@H](Cc2ccccc2)NC(=O)[C@@H](NC(=O)[C@H](N)Cc2ccccc2)CSSC[C@@H](C(=O)N[C@H](CO)[C@@H](C)O)NC1=O [Octreotide]
constant release rate per nanopore: 9×10^−12 μg/second per nanopore and 8×10^−7 μg/day per nanopore
